Data on one molecule can be found in PMC7038627.

Amino acid sequences for entries named in this document (tags omitted).
UniProt P35222: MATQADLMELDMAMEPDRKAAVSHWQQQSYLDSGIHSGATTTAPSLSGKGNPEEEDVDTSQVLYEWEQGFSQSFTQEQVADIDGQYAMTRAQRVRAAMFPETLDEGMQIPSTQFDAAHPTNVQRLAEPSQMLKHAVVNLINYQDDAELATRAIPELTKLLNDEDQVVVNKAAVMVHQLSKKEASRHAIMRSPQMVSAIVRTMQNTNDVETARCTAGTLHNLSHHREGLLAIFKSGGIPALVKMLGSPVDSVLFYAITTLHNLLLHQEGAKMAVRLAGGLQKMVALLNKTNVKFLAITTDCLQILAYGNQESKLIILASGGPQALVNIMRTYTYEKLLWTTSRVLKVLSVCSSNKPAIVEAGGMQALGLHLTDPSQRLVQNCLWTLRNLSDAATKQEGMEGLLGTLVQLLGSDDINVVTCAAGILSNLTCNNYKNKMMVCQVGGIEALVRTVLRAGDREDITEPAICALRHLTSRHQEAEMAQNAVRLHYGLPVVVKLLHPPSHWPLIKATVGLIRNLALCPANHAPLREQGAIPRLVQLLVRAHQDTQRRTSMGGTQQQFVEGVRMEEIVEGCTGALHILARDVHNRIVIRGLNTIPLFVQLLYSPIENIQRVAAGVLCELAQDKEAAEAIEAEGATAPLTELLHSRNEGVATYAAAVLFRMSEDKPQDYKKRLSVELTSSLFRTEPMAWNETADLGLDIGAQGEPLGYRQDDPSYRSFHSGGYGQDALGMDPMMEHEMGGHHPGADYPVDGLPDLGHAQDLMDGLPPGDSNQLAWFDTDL

The target in assay [1] is β-catenin (human (endogenous in MDA-MB-231)) (UniProt P35222). In words: proximity ligation; fixed MDA-MB-231/CLDN6 cells; anti-CLDN6 (rabbit) and anti-β-catenin (mouse) antibodies, Duolink PLA probes; signal only when the antigens are no more than 40 nm apart.
Assay [2] has the same target. In words: co-IP; RIPA lysate of MDA-MB-231/CLDN6 cells; specific primary antibody at 4 °C overnight, Protein A/G PLUS-Agarose beads, western blot.

Results are given in words; binding and its absence hold for the method and conditions named. In cells and extracts the contact can be indirect. Some binding calls cover weakened binding; strength is not graded here.

B1: Claudin6 (protein, UniProt P56747 1-220)
chain: MASAGMQILGVVLTLLGWVNGLVSCALPMWKVTAFIGNSIVVAQVVWEGLWMSCVVQSTGQMQCKVYDSLLALPQDLQAARALCVIALLVALFGLLVYLAGAKCTTCVEEKDSKARLVLTSGIVFVISGVLTLIPVCWTAHAIIRDFYNPLVAEAQKRELGASLYLGWAASGLLLLGGGLLCCTCPSGGSQGPSHYMARYSTSAPAISRGPSEYPTKNYV
As for B1, the binding entry in assay [1] and in assay [2] was “binds” in each case.
